Values quoted from earlier work, collected in patent publication US20230233696A1, “TRIANTENNARY N-ACETYLGALACTOSAMINE MODIFIED HYDROXYL POLYAMIDOAMINE DENDRIMERS AND METHODS OF USE THEREOF” (Ashvattha Therapeutics, Inc., priority 2019, published 2023).
At least one structure is not confirmed: it was looked up by name or label, or the drawing left a doubt.

Biological target: T1, Farnesoid X receptor (FXR) (Homo sapiens, UniProt Q96RI1)
T1 sequence (Q96RI1 1-486): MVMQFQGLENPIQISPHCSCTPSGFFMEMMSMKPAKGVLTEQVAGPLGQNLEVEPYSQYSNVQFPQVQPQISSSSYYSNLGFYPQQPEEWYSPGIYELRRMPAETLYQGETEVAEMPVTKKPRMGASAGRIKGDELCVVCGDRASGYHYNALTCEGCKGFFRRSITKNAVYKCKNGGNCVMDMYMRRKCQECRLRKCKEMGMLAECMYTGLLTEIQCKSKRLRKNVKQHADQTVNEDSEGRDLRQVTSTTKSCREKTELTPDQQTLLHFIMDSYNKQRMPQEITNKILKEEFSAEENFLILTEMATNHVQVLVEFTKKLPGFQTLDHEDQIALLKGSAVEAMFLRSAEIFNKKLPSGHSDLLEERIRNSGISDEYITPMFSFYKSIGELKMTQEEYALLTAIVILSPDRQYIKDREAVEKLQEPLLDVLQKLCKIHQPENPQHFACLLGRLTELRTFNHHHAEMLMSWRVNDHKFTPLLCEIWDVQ
Settings: FXR agonist; cited from earlier work

For `CC[C@H]1[C@@H](O)[C@@H]2[C@H](CC[C@]3(C)[C@@H]([C@H](C)CCC(=O)O)CC[C@@H]23)[C@@]2(C)CC[C@@H](O)C[C@@H]12` [Obeticholic acid], the “potency relative to endogenous ligand chenodeoxycholic acid (CDCA)” value is given as 100 fold.
